In publication PMC1334198:
These are yes or no findings as the source states them, for the method shown. Binding seen in cells or lysates may run through a third protein. A yes stands for co-enrichment or nearness to the bait. Other partners may have been found.

Sequences of proteins named here, by UniProt entry; tags and fusion partners are left off.
UniProt P98171: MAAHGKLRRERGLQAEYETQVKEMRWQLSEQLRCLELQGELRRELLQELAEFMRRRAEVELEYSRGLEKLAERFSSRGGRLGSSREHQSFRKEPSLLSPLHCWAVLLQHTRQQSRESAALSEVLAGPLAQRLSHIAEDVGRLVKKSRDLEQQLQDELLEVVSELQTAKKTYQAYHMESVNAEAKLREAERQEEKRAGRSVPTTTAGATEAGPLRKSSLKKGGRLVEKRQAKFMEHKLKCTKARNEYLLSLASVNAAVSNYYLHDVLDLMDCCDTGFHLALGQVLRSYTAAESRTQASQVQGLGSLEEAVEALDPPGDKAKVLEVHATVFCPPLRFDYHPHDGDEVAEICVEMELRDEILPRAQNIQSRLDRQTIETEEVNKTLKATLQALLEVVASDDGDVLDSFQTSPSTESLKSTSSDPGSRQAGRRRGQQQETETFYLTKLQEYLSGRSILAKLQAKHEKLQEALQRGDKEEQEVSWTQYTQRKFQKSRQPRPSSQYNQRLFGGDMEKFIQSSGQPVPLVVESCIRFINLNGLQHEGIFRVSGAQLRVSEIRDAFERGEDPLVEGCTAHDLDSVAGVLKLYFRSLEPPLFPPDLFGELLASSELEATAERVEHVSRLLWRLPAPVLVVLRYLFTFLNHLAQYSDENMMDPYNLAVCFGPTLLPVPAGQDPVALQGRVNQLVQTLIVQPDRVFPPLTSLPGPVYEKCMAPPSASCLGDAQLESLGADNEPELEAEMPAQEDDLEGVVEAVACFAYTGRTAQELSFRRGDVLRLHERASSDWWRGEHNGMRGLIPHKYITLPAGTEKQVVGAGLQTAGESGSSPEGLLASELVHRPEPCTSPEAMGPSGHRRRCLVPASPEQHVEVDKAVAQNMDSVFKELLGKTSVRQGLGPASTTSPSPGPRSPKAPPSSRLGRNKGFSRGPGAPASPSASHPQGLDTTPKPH
UniProt Q13459: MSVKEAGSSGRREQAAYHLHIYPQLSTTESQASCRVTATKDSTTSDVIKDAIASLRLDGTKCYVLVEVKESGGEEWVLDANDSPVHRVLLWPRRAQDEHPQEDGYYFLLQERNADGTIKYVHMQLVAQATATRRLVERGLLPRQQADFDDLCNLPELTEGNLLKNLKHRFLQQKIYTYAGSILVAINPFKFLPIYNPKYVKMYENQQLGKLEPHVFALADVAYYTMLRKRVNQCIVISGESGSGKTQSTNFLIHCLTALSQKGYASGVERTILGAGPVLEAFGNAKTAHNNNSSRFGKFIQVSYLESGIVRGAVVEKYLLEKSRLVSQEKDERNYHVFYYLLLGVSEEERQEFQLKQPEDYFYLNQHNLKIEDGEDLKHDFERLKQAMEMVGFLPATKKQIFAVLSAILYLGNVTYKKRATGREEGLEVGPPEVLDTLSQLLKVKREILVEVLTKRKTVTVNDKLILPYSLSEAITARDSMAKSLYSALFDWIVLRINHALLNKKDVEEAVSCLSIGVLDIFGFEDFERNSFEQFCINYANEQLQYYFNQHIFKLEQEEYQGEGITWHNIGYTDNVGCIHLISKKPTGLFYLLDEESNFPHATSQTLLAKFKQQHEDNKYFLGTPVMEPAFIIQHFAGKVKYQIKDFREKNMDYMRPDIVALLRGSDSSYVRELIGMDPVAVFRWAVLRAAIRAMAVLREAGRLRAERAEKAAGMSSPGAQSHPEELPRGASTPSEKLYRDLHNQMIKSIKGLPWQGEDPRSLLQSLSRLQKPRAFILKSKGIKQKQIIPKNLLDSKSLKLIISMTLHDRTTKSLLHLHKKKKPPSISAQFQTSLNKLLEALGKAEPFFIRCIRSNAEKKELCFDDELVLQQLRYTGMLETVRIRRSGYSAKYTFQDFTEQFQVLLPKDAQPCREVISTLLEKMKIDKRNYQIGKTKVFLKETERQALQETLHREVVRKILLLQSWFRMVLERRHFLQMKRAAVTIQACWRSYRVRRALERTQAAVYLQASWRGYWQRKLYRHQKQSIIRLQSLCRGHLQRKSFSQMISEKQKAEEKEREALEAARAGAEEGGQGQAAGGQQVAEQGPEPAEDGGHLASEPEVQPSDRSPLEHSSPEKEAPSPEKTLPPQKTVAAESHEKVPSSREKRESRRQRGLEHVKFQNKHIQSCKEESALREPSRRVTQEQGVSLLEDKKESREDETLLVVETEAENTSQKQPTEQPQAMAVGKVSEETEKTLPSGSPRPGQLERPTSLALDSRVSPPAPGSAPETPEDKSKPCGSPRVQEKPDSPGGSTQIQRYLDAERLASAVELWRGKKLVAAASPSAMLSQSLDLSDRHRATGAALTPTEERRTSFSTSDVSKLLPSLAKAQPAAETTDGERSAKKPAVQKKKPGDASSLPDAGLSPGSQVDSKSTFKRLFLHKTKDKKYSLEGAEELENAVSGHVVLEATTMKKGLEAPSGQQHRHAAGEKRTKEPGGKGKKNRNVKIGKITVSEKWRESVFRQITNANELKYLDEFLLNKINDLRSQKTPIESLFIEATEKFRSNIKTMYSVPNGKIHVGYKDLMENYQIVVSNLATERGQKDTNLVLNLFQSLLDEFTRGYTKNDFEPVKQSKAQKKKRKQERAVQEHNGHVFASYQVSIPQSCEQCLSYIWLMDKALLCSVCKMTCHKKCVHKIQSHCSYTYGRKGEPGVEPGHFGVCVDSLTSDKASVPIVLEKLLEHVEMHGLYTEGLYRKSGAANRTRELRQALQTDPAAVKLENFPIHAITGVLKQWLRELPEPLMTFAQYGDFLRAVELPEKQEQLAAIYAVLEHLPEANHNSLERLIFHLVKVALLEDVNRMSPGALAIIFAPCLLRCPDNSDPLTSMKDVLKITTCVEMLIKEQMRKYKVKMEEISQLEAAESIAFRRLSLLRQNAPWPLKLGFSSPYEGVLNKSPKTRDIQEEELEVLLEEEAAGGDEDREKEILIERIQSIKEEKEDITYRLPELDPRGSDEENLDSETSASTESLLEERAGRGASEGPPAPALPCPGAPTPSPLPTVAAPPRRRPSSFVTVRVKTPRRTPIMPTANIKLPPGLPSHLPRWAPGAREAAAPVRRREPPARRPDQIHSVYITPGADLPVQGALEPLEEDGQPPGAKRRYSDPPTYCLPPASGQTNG
UniProt Q8IZP0: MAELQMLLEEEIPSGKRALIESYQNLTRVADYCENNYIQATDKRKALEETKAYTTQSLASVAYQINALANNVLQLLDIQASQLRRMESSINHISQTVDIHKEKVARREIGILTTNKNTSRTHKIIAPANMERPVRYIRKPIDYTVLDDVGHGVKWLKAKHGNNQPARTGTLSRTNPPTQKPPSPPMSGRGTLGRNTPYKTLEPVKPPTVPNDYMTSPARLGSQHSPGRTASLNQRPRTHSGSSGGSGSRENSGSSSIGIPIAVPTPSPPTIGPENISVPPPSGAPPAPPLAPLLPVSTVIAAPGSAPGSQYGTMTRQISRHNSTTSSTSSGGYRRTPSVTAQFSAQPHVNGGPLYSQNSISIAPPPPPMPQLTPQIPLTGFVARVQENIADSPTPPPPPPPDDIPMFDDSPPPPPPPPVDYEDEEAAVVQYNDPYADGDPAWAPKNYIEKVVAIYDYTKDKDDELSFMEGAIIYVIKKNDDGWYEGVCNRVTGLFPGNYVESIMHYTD
UniProt Q96F07: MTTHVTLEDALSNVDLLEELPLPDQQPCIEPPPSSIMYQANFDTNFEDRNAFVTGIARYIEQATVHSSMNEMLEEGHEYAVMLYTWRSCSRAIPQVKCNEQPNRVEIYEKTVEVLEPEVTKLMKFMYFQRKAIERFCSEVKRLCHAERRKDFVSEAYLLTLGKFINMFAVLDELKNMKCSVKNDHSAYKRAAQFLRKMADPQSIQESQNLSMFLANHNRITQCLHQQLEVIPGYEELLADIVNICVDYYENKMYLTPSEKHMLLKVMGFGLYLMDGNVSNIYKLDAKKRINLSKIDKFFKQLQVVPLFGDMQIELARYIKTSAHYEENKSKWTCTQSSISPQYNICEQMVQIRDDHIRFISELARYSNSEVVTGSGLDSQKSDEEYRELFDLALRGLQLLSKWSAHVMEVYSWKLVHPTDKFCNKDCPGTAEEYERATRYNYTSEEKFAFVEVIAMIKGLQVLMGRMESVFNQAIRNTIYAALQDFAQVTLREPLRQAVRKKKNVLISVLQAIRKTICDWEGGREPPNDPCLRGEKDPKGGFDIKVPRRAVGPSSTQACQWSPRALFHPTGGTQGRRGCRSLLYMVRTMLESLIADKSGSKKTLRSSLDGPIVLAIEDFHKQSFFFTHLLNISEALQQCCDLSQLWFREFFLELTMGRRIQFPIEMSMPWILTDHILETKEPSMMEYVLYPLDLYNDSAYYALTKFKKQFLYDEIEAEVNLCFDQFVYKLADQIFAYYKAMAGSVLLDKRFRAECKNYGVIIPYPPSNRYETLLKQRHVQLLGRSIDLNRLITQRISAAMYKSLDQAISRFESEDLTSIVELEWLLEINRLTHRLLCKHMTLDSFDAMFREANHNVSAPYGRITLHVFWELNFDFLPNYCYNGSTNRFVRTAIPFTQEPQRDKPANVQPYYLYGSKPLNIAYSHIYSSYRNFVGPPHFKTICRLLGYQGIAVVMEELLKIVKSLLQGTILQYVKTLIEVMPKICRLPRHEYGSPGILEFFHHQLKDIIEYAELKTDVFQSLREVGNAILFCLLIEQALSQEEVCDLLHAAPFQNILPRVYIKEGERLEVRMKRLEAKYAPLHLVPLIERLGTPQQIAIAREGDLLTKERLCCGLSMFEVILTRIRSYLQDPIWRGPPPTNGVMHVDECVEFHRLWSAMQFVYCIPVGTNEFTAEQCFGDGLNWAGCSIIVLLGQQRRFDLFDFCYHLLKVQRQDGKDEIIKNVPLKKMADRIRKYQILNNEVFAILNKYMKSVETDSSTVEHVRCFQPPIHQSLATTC
UniProt Q9Y6W5: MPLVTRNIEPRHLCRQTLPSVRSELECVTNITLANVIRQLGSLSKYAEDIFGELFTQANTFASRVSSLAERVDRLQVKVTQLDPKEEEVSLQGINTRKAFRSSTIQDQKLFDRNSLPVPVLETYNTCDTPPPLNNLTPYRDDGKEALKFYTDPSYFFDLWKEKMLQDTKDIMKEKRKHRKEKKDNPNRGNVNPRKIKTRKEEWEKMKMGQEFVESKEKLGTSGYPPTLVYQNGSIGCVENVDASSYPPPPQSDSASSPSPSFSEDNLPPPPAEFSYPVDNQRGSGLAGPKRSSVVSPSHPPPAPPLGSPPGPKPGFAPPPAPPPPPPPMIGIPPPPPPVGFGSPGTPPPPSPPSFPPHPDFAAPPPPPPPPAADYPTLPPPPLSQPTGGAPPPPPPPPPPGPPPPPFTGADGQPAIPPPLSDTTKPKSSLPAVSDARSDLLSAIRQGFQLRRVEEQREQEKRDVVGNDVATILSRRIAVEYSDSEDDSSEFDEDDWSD

Target: T1, hematopoietic protein 1 (Hem-1) (human (endogenous in HL-60)) (UniProt P55160)
T1 sequence: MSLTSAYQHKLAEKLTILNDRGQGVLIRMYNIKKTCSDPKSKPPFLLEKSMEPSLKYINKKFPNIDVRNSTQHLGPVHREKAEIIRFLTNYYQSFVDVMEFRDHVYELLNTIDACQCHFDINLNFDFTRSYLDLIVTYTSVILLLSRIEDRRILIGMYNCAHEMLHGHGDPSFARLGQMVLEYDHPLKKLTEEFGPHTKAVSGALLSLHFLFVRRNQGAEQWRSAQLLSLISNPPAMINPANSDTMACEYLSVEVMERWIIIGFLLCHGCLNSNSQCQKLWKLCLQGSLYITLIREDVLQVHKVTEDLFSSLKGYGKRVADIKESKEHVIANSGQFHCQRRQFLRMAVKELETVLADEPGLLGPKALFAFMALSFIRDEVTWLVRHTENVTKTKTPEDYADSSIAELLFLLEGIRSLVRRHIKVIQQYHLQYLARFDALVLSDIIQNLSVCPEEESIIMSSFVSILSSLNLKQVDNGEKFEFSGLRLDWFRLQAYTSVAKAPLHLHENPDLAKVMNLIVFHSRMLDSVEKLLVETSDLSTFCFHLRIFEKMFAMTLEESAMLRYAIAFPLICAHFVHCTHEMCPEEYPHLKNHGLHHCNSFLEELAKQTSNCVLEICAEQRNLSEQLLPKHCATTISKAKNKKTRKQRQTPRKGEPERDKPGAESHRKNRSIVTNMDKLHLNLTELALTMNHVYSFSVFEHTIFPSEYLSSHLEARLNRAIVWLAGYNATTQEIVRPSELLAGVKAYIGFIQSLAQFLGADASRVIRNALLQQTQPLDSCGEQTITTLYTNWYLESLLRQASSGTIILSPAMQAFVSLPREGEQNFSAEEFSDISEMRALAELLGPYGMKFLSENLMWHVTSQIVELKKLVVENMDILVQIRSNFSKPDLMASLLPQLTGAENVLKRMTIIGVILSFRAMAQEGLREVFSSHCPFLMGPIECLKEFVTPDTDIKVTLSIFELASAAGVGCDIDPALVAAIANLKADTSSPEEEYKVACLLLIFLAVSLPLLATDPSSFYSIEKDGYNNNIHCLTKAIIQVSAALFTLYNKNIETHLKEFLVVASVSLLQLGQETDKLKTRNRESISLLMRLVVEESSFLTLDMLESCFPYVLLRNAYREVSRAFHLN
Test: affinity purification with mass spectrometry; endogenous Hem-1 immunoprecipitated from differentiated HL-60 lysate (2 ml, 10 mg protein) with affinity-purified peptide antibodies (646-659 or 1114-1127) on protein A beads, washed with buffer B with 300 mM KCl and with 0.1% Tween-20, eluted with the Hem-1 peptide, 4 °C; gel slices identified by mass spectrometry

binding	Substance
binds	RhoGAP4 (from UniProt P98171 1-946)
binds	myosin IXB (from UniProt Q13459 1-2157)

More lines, now with the values behind:

Substance	binding
Abi-1 (Abelson interactor 1) (from UniProt Q8IZP0 1-508)	binds
CYFIP2 (from UniProt Q96F07 1-1278)	binds
Wiskott-Aldrich syndrome protein family Verprolin-homologous protein (WAVE)2 (from UniProt Q9Y6W5 1-498)	binds
